# Assay results: the supplement of paper PMC8728848
# This is one part of the list.
# B1: SspB C123 (Streptococcus gordonii), Q54186 (protein)
# chain: MAHFHYSSLLAQPQINKEIKNEDGVDIDRTLVAKQSIGKFELKTEALTAGRPKTTSFVLVDPLPTGYKFDLDATKAASTGFDTTYDEASHTVTFKATDETLATYNADLTKPVETLHPTVVGRVLNDGATYTNNFTLTVNDAYGIKSNVVRVTTPGKPNDPDNPNNNYIKPTKVNKNKEGLNIDGKEVLAGSTNYYELTWDLDQYKGDKSSKEAIQNGFYYVDDYPEEALDVRPDLVKVADEKGNQVSGVSVQQYDSLEAAPKKVQDLLKKANITVKGAFQLFSADNPEEFYKQYVSTGTSLVITDPMTVKSEFGKTGGKYENKAYQIDFGNGYATEVVVNNVPKITPKKDVTVSLDPTSENLDGQTVQLYQTFNYRLIGGFIPQNHSEELEDYSFVDDYDQAGDQYTGNYKTFSSLNLTMKDGSVIKAGTDLTSQTTAETDATNGIVTVRFKEDFLQKISLDSPFQAETYLQMRRIAIGTFENTYVNTVNKVAYASAAALEHHHHHH
# What was measured:
# Test in all cases: glycan array binding signal (z-score within array); higher = stronger binding
# Details in all cases: glycan notation: IUPAC condensed, linker removed
# Fuc(a1-2)Gal = target: Fuc(a1-2)Gal
# Outline: (§1)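 Glycan array data came from 3228 arrays in the Consortium for Functional Glycomics database, and only arrays with an available protein sequence were kept. Glycan names were put into IUPAC-condensed notation, and columns mapping to the same glycan were averaged. The binding signal is a within-array Z-score, averaged across arrays of one protein sequence run at different concentrations or buffers and across linkers. A negative Z-score can be read as non-binding.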
# Fuc(a1-2)Gal(b1-3)GalNAc = target: Fuc(a1-2)Gal(b1-3)GalNAc
# Outline: as §1
# [1] = target: Fuc(a1-2)Gal(b1-3)GalNAc(a1-3)[Fuc(a1-2)]Gal(b1-4)Glc
# Outline: as §1
# [2] = target: Fuc(a1-2)Gal(b1-3)GalNAc(a1-3)[Fuc(a1-2)]Gal(b1-4)GlcNAc
# Outline: as §1
# [3] = target: Fuc(a1-2)Gal(b1-3)GalNAc(b1-3)Gal
# Outline: as §1
# [4] = target: Fuc(a1-2)Gal(b1-3)GalNAc(b1-3)Gal(a1-4)Gal(b1-4)Glc
# Outline: as §1
# [5] = target: Fuc(a1-2)Gal(b1-3)GalNAc(b1-4)[Neu5Ac(a2-3)]Gal(b1-4)Glc
# Outline: as §1
# Fuc(a1-2)Gal(b1-3)GlcNAc = target: Fuc(a1-2)Gal(b1-3)GlcNAc
# Outline: as §1
# [6] = target: Fuc(a1-2)Gal(b1-3)GlcNAc(b1-2)Man(a1-3)[Fuc(a1-2)Gal(b1-3)GlcNAc(b1-2)Man(a1-6)]Man(b1-4)GlcNAc(b1-4)GlcNAc
# Outline: as §1
# [7] = target: Fuc(a1-2)Gal(b1-3)GlcNAc(b1-2)Man(a1-3)[Fuc(a1-2)Gal(b1-3)GlcNAc(b1-2)Man(a1-6)]Man(b1-4)GlcNAc(b1-4)[Fuc(a1-6)]GlcNAc
# Outline: as §1
# [8] = target: Fuc(a1-2)Gal(b1-3)GlcNAc(b1-3)Gal(b1-4)Glc
# Outline: as §1
# [9] = target: Fuc(a1-2)Gal(b1-3)GlcNAc(b1-3)GalNAc
# Outline: as §1
# [10] = target: Fuc(a1-2)Gal(b1-3)GlcNAc(b1-3)[Fuc(a1-2)Gal(b1-3)GlcNAc(b1-6)]GalNAc
# Outline: as §1
# [11] = target: Fuc(a1-2)Gal(b1-3)GlcNAc(b1-3)[Gal(b1-4)GlcNAc(b1-6)]Gal(b1-4)Glc
# Outline: as §1
# [12] = target: Fuc(a1-2)Gal(b1-3)GlcNAc(b1-3)[Neu5Ac(a2-6)Gal(b1-4)GlcNAc(b1-6)]Gal(b1-4)Glc
# Outline: as §1
# [13] = target: Fuc(a1-2)Gal(b1-3)GlcNAc6S
# Outline: as §1
# [14] = target: Fuc(a1-2)Gal(b1-3)[Fuc(a1-4)]GlcNAc
# Outline: as §1
# [15] = target: Fuc(a1-2)Gal(b1-3)[Fuc(a1-4)]GlcNAc(b1-2)Man(a1-3)[Fuc(a1-2)Gal(b1-3)[Fuc(a1-4)]GlcNAc(b1-2)Man(a1-3)]Man(b1-4)GlcNAc(b1-4)GlcNAc
# Outline: as §1
# [16] = target: Fuc(a1-2)Gal(b1-3)[Fuc(a1-4)]GlcNAc(b1-2)Man(a1-3)[Fuc(a1-2)Gal(b1-3)[Fuc(a1-4)]GlcNAc(b1-2)Man(a1-6)]Man(b1-4)GlcNAc(b1-4)[Fuc(a1-6)]GlcNAc(b1-4)[Fuc(a1-6)]GlcNAc
# Outline: as §1
# [17] = target: Fuc(a1-2)Gal(b1-3)[Fuc(a1-4)]GlcNAc(b1-3)[Fuc(a1-3)[Gal(b1-4)]GlcNAc(b1-6)]Gal(b1-4)Glc
# Outline: as §1
# [18] = target: Fuc(a1-2)Gal(b1-3)[Fuc(a1-4)]GlcNAc(b1-3)[Gal(b1-4)GlcNAc(b1-6)]Gal(b1-4)Glc
# Outline: as §1
# [19] = target: Fuc(a1-2)Gal(b1-4)Fuc(a1-3)]GlcNAc(b1-2)Man(a1-3)[Fuc(a1-2)Gal(b1-4)[Fuc(a1-3)]GlcNAc(b1-2)Man(a1-6)]Man(b1-4)GlcNAc(b1-4)GlcNAc
# Outline: as §1
# Fuc(a1-2)Gal(b1-4)Glc = target: Fuc(a1-2)Gal(b1-4)Glc
# Outline: as §1
# Fuc(a1-2)Gal(b1-4)Glc6S = target: Fuc(a1-2)Gal(b1-4)Glc6S
# Outline: as §1
# Fuc(a1-2)Gal(b1-4)GlcNAc = target: Fuc(a1-2)Gal(b1-4)GlcNAc
# Outline: as §1
# [20] = target: Fuc(a1-2)Gal(b1-4)GlcNAc(b1-2)Man
# Outline: as §1
# [21] = target: Fuc(a1-2)Gal(b1-4)GlcNAc(b1-2)Man(a1-3)[Fuc(a1-2)Gal(b1-4)GlcNAc(b1-2)Man(a1-6)]Man(b1-4)GlcNAc(b1-4)GlcNAc
# Outline: as §1
# [22] = target: Fuc(a1-2)Gal(b1-4)GlcNAc(b1-2)Man(a1-3)[Fuc(a1-2)Gal(b1-4)GlcNAc(b1-2)Man(a1-6)]Man(b1-4)GlcNAc(b1-4)[Fuc(a1-6)]GlcNAc
# Outline: as §1
# [23] = target: Fuc(a1-2)Gal(b1-4)GlcNAc(b1-2)[Fuc(a1-2)Gal(b1-4)GlcNAc(b1-4)]Man(a1-3)[Fuc(a1-2)Gal(b1-4)GlcNAc(b1-2)Man(a1-6)]Man(b1-4)GlcNAc(b1-4)GlcNAc
# Outline: as §1
# [24] = target: Fuc(a1-2)Gal(b1-4)GlcNAc(b1-3)Gal(b1-4)GlcNAc
# Outline: as §1
# [25] = target: Fuc(a1-2)Gal(b1-4)GlcNAc(b1-3)Gal(b1-4)GlcNAc(b1-2)Man(a1-3)[Fuc(a1-2)Gal(b1-4)GlcNAc(b1-3)Gal(b1-4)GlcNAc(b1-2)Man(a1-6)]Man(b1-4)GlcNAc(b1-4)GlcNAc
# Outline: as §1
# [26] = target: Fuc(a1-2)Gal(b1-4)GlcNAc(b1-3)Gal(b1-4)GlcNAc(b1-3)Gal(b1-4)GlcNAc
# Outline: as §1
# [27] = target: Fuc(a1-2)Gal(b1-4)GlcNAc(b1-3)GalNAc
# Outline: as §1
# [28] = target: Fuc(a1-2)Gal(b1-4)GlcNAc(b1-3)[Fuc(a1-2)Gal(b1-4)GlcNAc(b1-6)]GalNAc
# Outline: as §1
# [29] = target: Fuc(a1-2)Gal(b1-4)GlcNAc(b1-3)[Fuc(a1-3)[Gal(b1-4)]GlcNAc(b1-6)]Gal(b1-4)Glc
# Outline: as §1
# [30] = target: Fuc(a1-2)Gal(b1-4)GlcNAc(b1-6)GalNAc
# Outline: as §1
# [31] = target: Fuc(a1-2)Gal(b1-4)GlcNAc6S
# Outline: as §1
binder,measurement,setting,value
B1,glycan array binding signal (z-score),Fuc(a1-2)Gal,-0.078
same,glycan array binding signal (z-score),Fuc(a1-2)Gal(b1-3)GalNAc,-0.501
same,glycan array binding signal (z-score),[1],2.17
same,glycan array binding signal (z-score),[2],-1.8
same,glycan array binding signal (z-score),[3],0.233
same,glycan array binding signal (z-score),[4],-1.08
same,glycan array binding signal (z-score),[5],0.508
same,glycan array binding signal (z-score),Fuc(a1-2)Gal(b1-3)GlcNAc,-0.522
same,glycan array binding signal (z-score),[6],-0.237
same,glycan array binding signal (z-score),[7],-1.24
same,glycan array binding signal (z-score),[8],-0.465
same,glycan array binding signal (z-score),[9],0.158
same,glycan array binding signal (z-score),[10],1.6
same,glycan array binding signal (z-score),[11],-0.17
same,glycan array binding signal (z-score),[12],1.14
same,glycan array binding signal (z-score),[13],-0.474
same,glycan array binding signal (z-score),[14],-1.01
same,glycan array binding signal (z-score),[15],0.525
same,glycan array binding signal (z-score),[16],-0.501
same,glycan array binding signal (z-score),[17],-0.205
same,glycan array binding signal (z-score),[18],-0.129
same,glycan array binding signal (z-score),[19],0.837
same,glycan array binding signal (z-score),Fuc(a1-2)Gal(b1-4)Glc,-1.34
same,glycan array binding signal (z-score),Fuc(a1-2)Gal(b1-4)Glc6S,-1.25
same,glycan array binding signal (z-score),Fuc(a1-2)Gal(b1-4)GlcNAc,-0.302
same,glycan array binding signal (z-score),[20],0.493
same,glycan array binding signal (z-score),[21],-0.148
same,glycan array binding signal (z-score),[22],-0.468
same,glycan array binding signal (z-score),[23],2.68
same,glycan array binding signal (z-score),[24],-1.2
same,glycan array binding signal (z-score),[25],0.511
same,glycan array binding signal (z-score),[26],-0.573
same,glycan array binding signal (z-score),[27],-0.78
same,glycan array binding signal (z-score),[28],-0.475
same,glycan array binding signal (z-score),[29],-0.458
same,glycan array binding signal (z-score),[30],-0.144
same,glycan array binding signal (z-score),[31],-0.494

# In a second layout: results already given.
binder	measurement	setting	value
B1	glycan array binding signal (z-score)	[26]	-0.573
same	glycan array binding signal (z-score)	[27]	-0.78
same	glycan array binding signal (z-score)	[28]	-0.475
